Data as given in the supplement of paper PMC10849652.
The list shows a part of the results.

Sequences of proteins named here, by UniProt entry; tags and fusion partners are left off. A change or cut given only in a name is not applied to a line headed by its entry.
UniProt P09960: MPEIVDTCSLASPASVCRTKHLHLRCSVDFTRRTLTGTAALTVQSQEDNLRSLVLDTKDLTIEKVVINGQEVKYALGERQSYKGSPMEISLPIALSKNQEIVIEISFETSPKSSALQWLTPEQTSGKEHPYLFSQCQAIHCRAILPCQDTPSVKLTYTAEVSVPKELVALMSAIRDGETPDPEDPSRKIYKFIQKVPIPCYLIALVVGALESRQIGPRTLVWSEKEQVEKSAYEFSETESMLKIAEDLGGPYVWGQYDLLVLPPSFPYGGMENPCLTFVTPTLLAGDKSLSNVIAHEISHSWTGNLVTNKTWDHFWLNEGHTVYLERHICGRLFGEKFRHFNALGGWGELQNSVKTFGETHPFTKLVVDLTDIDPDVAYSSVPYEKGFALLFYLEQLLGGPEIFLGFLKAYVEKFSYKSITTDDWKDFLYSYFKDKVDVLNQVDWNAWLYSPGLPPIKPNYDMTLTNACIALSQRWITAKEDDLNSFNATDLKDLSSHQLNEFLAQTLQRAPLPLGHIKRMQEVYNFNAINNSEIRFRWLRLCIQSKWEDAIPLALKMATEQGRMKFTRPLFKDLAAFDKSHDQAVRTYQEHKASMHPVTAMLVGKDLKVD
UniProt Q9BX40: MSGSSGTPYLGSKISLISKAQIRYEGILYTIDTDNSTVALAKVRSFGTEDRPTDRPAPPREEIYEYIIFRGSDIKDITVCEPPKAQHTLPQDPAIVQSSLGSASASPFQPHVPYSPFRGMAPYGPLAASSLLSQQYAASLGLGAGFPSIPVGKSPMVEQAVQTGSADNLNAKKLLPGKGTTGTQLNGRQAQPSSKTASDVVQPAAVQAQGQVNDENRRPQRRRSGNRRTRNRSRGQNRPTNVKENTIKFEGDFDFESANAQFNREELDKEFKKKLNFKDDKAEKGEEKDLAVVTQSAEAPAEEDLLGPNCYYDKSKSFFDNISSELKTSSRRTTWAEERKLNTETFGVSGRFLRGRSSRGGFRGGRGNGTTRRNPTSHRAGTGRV
UniProt O95777: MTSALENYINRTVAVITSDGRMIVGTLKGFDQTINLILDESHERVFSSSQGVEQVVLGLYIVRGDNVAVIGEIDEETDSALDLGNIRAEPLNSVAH
UniProt Q6ZN28: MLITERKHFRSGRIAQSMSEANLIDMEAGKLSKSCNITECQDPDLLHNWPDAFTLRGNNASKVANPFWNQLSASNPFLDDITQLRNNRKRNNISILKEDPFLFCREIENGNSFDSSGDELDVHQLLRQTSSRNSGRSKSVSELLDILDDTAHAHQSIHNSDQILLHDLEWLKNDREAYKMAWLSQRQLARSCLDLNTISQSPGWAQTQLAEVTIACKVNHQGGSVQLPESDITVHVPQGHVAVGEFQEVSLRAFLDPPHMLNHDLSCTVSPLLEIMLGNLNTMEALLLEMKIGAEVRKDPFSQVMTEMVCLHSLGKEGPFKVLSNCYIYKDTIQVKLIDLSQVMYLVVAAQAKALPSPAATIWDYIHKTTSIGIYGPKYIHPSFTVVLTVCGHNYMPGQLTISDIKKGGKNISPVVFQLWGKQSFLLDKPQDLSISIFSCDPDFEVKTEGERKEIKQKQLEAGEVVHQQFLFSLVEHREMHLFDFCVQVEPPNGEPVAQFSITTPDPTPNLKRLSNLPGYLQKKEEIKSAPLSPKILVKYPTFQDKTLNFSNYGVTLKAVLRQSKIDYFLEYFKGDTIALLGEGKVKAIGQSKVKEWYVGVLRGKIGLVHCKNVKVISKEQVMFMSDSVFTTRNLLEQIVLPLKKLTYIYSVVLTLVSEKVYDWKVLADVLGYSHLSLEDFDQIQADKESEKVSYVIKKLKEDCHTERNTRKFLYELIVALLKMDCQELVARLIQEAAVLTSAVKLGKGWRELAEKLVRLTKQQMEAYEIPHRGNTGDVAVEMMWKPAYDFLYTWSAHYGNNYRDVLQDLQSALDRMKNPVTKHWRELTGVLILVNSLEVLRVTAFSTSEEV
UniProt Q16706: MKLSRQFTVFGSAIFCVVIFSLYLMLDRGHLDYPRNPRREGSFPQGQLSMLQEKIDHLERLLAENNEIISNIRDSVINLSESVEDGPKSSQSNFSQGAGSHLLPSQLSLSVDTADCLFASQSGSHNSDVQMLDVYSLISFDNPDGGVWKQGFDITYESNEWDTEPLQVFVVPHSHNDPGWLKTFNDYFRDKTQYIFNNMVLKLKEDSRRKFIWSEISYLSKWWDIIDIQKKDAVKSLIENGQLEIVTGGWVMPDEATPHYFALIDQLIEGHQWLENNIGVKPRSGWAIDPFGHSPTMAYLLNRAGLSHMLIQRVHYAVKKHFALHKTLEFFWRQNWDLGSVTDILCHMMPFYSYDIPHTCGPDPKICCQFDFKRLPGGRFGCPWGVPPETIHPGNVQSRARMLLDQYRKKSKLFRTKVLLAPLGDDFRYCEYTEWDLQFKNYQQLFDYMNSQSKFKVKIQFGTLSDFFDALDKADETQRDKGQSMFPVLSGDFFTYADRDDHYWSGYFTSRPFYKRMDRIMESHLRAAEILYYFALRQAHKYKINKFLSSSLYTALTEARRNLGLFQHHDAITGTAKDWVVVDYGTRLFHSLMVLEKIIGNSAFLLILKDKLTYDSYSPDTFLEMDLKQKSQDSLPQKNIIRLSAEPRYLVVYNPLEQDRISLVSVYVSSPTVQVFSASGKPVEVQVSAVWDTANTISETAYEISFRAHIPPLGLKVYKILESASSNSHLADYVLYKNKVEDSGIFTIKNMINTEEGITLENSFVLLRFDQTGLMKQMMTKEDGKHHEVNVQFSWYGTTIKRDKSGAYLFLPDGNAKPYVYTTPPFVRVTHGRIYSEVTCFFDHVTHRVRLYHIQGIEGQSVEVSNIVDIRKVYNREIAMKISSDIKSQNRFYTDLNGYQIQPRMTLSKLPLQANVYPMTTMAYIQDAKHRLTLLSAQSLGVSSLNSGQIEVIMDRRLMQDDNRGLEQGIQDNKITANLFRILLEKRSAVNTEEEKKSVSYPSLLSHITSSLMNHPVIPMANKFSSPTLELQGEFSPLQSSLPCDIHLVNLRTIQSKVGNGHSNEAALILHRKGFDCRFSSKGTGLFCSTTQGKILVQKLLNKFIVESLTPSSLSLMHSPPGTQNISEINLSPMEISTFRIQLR
UniProt P20645: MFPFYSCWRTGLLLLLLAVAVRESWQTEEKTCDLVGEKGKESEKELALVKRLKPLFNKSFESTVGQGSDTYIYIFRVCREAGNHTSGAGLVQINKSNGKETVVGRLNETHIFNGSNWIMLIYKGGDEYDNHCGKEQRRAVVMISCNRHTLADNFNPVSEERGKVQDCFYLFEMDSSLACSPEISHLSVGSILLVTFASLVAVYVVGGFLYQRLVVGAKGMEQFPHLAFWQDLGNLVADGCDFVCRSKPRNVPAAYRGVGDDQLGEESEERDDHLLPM
UniProt P62312: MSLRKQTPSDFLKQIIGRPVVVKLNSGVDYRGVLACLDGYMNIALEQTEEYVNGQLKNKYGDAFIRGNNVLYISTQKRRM
UniProt O00754: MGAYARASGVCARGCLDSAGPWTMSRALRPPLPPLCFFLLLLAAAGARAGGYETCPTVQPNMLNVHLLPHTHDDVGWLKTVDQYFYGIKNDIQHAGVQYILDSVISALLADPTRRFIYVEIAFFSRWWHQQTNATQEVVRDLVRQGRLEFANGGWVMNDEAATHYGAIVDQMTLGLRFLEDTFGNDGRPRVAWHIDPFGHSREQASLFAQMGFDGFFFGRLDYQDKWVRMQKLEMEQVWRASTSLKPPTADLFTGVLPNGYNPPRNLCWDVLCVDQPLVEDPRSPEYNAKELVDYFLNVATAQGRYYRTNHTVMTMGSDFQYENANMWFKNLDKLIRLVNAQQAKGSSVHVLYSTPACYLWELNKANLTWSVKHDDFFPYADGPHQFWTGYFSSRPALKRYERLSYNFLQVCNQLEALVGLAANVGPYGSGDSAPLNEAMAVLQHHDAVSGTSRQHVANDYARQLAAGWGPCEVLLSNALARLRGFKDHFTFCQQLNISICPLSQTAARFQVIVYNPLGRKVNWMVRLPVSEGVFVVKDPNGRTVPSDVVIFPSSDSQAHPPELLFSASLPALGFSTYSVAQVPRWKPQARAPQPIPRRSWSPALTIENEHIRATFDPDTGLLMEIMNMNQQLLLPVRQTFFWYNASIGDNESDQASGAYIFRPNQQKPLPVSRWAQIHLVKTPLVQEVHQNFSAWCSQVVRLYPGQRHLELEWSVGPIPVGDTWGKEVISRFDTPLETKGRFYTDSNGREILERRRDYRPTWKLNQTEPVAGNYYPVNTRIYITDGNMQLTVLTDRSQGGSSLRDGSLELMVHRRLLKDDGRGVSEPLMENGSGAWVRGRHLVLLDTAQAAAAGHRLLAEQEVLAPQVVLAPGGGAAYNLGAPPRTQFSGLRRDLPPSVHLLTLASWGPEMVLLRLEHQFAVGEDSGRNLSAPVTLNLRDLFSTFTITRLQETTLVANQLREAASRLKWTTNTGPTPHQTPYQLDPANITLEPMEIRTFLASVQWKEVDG
UniProt Q8ND56: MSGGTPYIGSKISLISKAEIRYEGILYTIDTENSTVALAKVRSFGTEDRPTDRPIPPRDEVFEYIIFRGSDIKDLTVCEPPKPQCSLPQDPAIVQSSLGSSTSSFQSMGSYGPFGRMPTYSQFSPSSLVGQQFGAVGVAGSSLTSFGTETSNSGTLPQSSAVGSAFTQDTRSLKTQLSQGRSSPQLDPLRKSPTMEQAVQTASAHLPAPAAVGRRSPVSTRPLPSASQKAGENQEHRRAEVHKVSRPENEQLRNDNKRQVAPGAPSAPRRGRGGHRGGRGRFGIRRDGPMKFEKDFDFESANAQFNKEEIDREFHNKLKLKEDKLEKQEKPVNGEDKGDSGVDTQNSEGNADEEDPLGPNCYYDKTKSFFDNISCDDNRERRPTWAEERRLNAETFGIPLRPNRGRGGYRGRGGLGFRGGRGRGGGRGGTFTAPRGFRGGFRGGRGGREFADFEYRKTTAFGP
UniProt Q8IWT6: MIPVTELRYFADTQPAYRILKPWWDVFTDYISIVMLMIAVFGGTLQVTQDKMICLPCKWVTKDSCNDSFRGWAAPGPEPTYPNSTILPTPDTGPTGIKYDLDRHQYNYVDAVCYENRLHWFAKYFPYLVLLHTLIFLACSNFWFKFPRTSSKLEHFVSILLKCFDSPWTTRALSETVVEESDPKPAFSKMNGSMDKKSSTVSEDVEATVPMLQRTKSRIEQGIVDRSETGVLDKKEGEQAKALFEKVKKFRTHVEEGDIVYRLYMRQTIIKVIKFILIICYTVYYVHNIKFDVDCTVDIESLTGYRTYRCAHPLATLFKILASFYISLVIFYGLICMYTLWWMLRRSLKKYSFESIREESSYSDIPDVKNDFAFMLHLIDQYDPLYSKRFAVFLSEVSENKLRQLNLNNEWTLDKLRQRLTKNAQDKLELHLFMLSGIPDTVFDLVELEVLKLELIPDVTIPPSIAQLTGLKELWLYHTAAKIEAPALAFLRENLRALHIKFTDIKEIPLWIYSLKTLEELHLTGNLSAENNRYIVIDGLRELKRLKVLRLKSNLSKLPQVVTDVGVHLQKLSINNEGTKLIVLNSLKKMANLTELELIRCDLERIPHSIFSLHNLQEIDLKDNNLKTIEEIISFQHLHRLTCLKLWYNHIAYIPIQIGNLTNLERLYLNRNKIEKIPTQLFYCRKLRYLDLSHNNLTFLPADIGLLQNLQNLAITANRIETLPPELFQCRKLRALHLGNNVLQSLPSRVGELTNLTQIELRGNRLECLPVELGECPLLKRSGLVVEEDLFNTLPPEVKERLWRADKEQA
UniProt Q3MHD2: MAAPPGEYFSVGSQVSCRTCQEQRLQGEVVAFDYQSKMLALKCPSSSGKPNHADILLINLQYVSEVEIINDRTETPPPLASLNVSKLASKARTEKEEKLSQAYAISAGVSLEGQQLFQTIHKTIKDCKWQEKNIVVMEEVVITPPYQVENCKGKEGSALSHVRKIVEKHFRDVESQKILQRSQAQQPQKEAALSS

How the values were obtained:
Assay in all cases: log2 fold change, soluble protein after heating vs DMSO (PISA); higher = thermal stabilisation; K562 cells, 10 uM, 30 min; active = over 0.2 and 3.5 SD of the protein, either way, in both replicates (recomputed)
[1] = compound: CS(=O)(=O)c1ccc(-c2cnc(N)c(C(=O)Nc3ccccc3)n2)cc1
In short: (§1)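 Aliquots of K562 cells (2×10^6 cells/mL) treated with 10 μM compound for 30 min were heated for 3 min over 48°C-58°C. After pooling and extraction in PBS with 0.5% NP-40 at 4°C, soluble protein from a 21,000xg, 90 min spin was quantified by TMTpro 16plex LC-MS/MS with channel sums equalised. Thermal stability is expressed against control samples, from duplicates, as a log2 fold change.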

crizotinib = compound: C[C@@H](Oc1cc(-c2cnn(C3CCNCC3)c2)cnc1N)c1c(Cl)ccc(F)c1Cl [crizotinib]
In short: as §1

[2] = compound: C[C@@H]1COCCN1C2=NC(=NC(=C2)C3(CC3)S(=O)(=O)C)C4=C5C=CNC5=CC=C4
In short: as §1

[3] = compound: C[C@H](C1=CC=C(C=C1)C(=O)NC2=C3C=CNC3=NC=C2)N
In short: as §1

duvelisib = compound: C[C@H](Nc1ncnc2nc[nH]c12)c1cc2cccc(Cl)c2c(=O)n1-c1ccccc1 [duvelisib]
In short: as §1

gandotinib = compound: Cc1cc(Nc2cc(CN3CCOCC3)c3nc(C)c(Cc4ccc(Cl)cc4F)n3n2)n[nH]1 [gandotinib]
In short: as §1

tozasertib = compound: Cc1cc(Nc2cc(N3CCN(C)CC3)nc(Sc3ccc(NC(=O)C4CC4)cc3)n2)n[nH]1 [tozasertib]
In short: as §1

[4] = compound: Cc1cc(SCc2sc(-c3ccc(C(F)(F)F)cc3)nc2C)ccc1OCC(=O)O
In short: as §1

doramapimod = compound: Cc1ccc(-n2nc(C(C)(C)C)cc2NC(=O)Nc2ccc(OCCN3CCOCC3)c3ccccc23)cc1 [doramapimod]
In short: as §1

ispinesib = compound: Cc1ccc(C(=O)N(CCCN)[C@@H](c2nc3cc(Cl)ccc3c(=O)n2Cc2ccccc2)C(C)C)cc1 [ispinesib]
In short: as §1

bafetinib = compound: Cc1ccc(NC(=O)c2ccc(CN3CC[C@H](N(C)C)C3)c(C(F)(F)F)c2)cc1Nc1nccc(-c2cncnc2)n1 [bafetinib]
In short: as §1

[5] = compound: Cc1cccc(CC(=O)N2CCc3c2ccc(-c2cn(C)c4ncnc(N)c24)c3F)n1
In short: as §1

nilotinib = compound: Cc1cn(-c2cc(NC(=O)c3ccc(C)c(Nc4nccc(-c5cccnc5)n4)c3)cc(C(F)(F)F)c2)cn1 [nilotinib]
In short: as §1

[6] = compound: Cc1nc(Nc2n[nH]c3c2CN(C(=O)N[C@H](CN(C)C)c2ccccc2)C3(C)C)c2sccc2n1
In short: as §1

dasatinib = compound: Cc1nc(Nc2ncc(C(=O)Nc3c(C)cccc3Cl)s2)cc(N2CCN(CCO)CC2)n1 [dasatinib]
In short: as §1

[7] = compound: Cc1ncc(-c2ccnc(Nc3ccc(S(C)(=O)=O)cc3)n2)n1C(C)C
In short: as §1

[8] = compound: Cn1cc(-c2ccc3c(c2)CCN3C(=O)Cc2cccc(C(F)(F)F)c2)c2c(N)ncnc21
In short: as §1

[9] = compound: Cn1cc(-c2ccc3nnc(C(F)(F)c4ccc5ncccc5c4)n3n2)cn1
In short: as §1

tipifarnib = compound: Cn1cncc1[C@@](N)(c1ccc(Cl)cc1)c1ccc2c(c1)c(-c1cccc(Cl)c1)cc(=O)n2C [tipifarnib]
In short: as §1

mubritinib = compound: FC(F)(F)c1ccc(/C=C/c2nc(COc3ccc(CCCCn4ccnn4)cc3)co2)cc1 [mubritinib]
In short: as §1

Measured: log2 fold change

MAP7D1 (UniProt Q3KQU3)
inactive: [1] 0.034 | crizotinib -0.075 | [2] -0.458 | [3] 0.414 | duvelisib -0.141 | gandotinib 0.261 | tozasertib 0.023 | [4] 0.01 | doramapimod 0.261 | ispinesib -0.173 | bafetinib 0.313 | [5] 0 | nilotinib -0.067 | [6] 0.11 | dasatinib 0.044 | [7] -0.011 | [8] -0.266 | [9] -0.152 | tipifarnib 0.085 | mubritinib -0.088

LTA4H (UniProt P09960)
inactive: [1] 0.014 | crizotinib 0.027 | [2] 0.093 | [3] -0.126 | duvelisib 0.012 | gandotinib -0.026 | tozasertib 0.017 | [4] 0.013 | doramapimod -0.017 | ispinesib 0.035 | bafetinib -0.037 | [5] 0.022 | nilotinib -0.001 | [6] 0.011 | dasatinib -0.03 | [7] 0 | [8] 0.025 | [9] 0.011 | tipifarnib -0.102 | mubritinib 0.037

LSM14B (UniProt Q9BX40)
inactive: [1] -0.092 | crizotinib -0.024 | [2] -0.119 | [3] 0.077 | duvelisib -0.028 | gandotinib 0.081 | tozasertib 0.048 | [4] 0.138 | doramapimod 0.066 | ispinesib -0.165 | bafetinib 0.076 | [5] 0.06 | nilotinib -0.073 | [6] -0.109 | dasatinib -0.04 | [7] 0.05 | [8] -0.049 | [9] -0.055 | tipifarnib -0.021 | mubritinib 0.096

LSM8 (UniProt O95777)
inactive: [1] -0.031 | crizotinib 0.061 | [2] 0.088 | [3] -0.02 | duvelisib 0.084 | gandotinib 0.05 | tozasertib -0.013 | [4] -0.076 | doramapimod -0.017 | ispinesib 0.035 | bafetinib -0.002 | [5] -0.012 | nilotinib 0 | [6] 0.022 | dasatinib 0.033 | [7] 0.003 | [8] 0.034 | [9] -0.012 | tipifarnib 0.017 | mubritinib 0.038

MACC1 (UniProt Q6ZN28)
inactive: [1] 0.054 | crizotinib -0.145 | [2] 0.085 | [3] -0.083 | duvelisib 0.049 | gandotinib -0.15 | tozasertib -0.017 | [4] -0.005 | doramapimod 0.076 | ispinesib 0.024 | bafetinib -0.018 | [5] -0.014 | nilotinib 0.066 | [6] -0.077 | dasatinib -0.123 | [7] -0.108 | [8] -0.163 | [9] -0.072 | tipifarnib -0.21 | mubritinib 0.039

MAN2A1 (UniProt Q16706)
inactive: [1] 0.076 | crizotinib 0.021 | [2] 0.011 | [3] 0.004 | duvelisib 0.023 | gandotinib -0.01 | tozasertib 0.003 | [4] -0.027 | doramapimod -0.016 | ispinesib 0.032 | bafetinib -0.015 | [5] 0.023 | nilotinib 0.01 | [6] -0.01 | dasatinib 0.018 | [7] -0.025 | [8] 0.023 | [9] -0.014 | tipifarnib 0.097 | mubritinib 0.019

M6PR (UniProt P20645)
inactive: [1] 0.031 | crizotinib 0.082 | [2] -0.012 | [3] -0.168 | duvelisib -0.017 | gandotinib -0.011 | tozasertib 0.032 | [4] -0.012 | doramapimod 0.003 | ispinesib -0.09 | bafetinib -0.157 | [5] -0.098 | nilotinib 0.005 | [6] 0.032 | dasatinib 0.042 | [7] -0.024 | [8] 0.016 | [9] 0.003 | tipifarnib -0.096 | mubritinib 0.004

LSM6 (UniProt P62312)
inactive: [1] 0.089 | crizotinib 0.059 | [2] 0.016 | [3] -0.202 | duvelisib -0.042 | gandotinib 0 | tozasertib 0.024 | [4] -0.05 | doramapimod -0.024 | ispinesib 0.099 | bafetinib -0.019 | [5] 0.203 | nilotinib 0.01 | [6] 0.025 | dasatinib 0.055 | [7] -0.009 | [8] 0.055 | [9] -0.018 | tipifarnib -0.016 | mubritinib 0.009

MAN2B1 (UniProt O00754)
inactive: [1] 0.015 | crizotinib 0.003 | [2] 0.056 | [3] -0.037 | duvelisib -0.007 | gandotinib 0.099 | tozasertib 0.008 | [4] -0.022 | doramapimod -0.02 | ispinesib 0.008 | bafetinib -0.055 | [5] -0.021 | nilotinib 0.039 | [6] -0.023 | dasatinib 0.005 | [7] 0.063 | [8] -0.021 | [9] 0.027 | tipifarnib 0.069 | mubritinib 0.088

MACF1 (UniProt H3BQK9)
inactive: [1] -0.087 | crizotinib -0.028 | [2] 0.085 | [3] 0.155 | duvelisib 0.244 | gandotinib -0.041 | tozasertib 0.005 | [4] 0.082 | doramapimod 0.068 | ispinesib -0.142 | bafetinib 0.222 | [5] -0.078 | nilotinib 0.078 | [6] -0.157 | dasatinib -0.126 | [7] -0.062 | [8] -0.076 | [9] 0.011 | tipifarnib 0.148 | mubritinib -0.026

MAPRE2 (UniProt Q15555)
inactive: [1] -0.068 | crizotinib -0.179 | [2] -0.309 | [3] -0.014 | duvelisib -0.096 | gandotinib -0.039 | tozasertib 0.103 | [4] 0.126 | doramapimod 0.106 | ispinesib 0.145 | bafetinib 0.288 | [5] 0.026 | nilotinib 0.131 | [6] -0.099 | dasatinib -0.069 | [7] 0.071 | [8] -0.016 | [9] -0.133 | tipifarnib -0.069 | mubritinib -0.007

LSM14A isoform 2 (UniProt Q8ND56)
inactive: [1] 0.027 | crizotinib 0.052 | [2] -0.044 | [3] -0.021 | duvelisib -0.047 | gandotinib -0.032 | tozasertib -0.054 | [4] 0.102 | doramapimod -0.019 | ispinesib -0.089 | bafetinib -0.086 | [5] -0.019 | nilotinib -0.077 | [6] 0.044 | dasatinib -0.025 | [7] 0.021 | [8] -0.026 | [9] 0.009 | tipifarnib -0.015 | mubritinib 0.056

LRRC8A (UniProt Q8IWT6)
inactive: [1] 0.006 | crizotinib -0.016 | [2] -0.185 | [3] 0.125 | duvelisib -0.066 | gandotinib 0.088 | tozasertib -0.034 | [4] 0.056 | doramapimod 0.188 | ispinesib -0.085 | bafetinib 0.045 | [5] 0.009 | nilotinib -0.014 | [6] 0.033 | dasatinib 0.012 | [7] -0.036 | [8] -0.179 | [9] -0.056 | tipifarnib 0.056 | mubritinib 0.139

MAGEC1 (UniProt O60732)
inactive: [1] 0.046 | crizotinib -0.075 | [2] -0.14 | [3] 0.185 | duvelisib -0.039 | gandotinib 0.103 | tozasertib 0.142 | [4] 0.029 | doramapimod 0.075 | ispinesib -0.103 | bafetinib 0.062 | [5] 0.025 | nilotinib 0.032 | [6] -0.046 | dasatinib -0.008 | [7] 0.065 | [8] -0.141 | [9] -0.04 | tipifarnib -0.085 | mubritinib -0.081

MAN2C1 isoform 4 (UniProt Q9NTJ4)
inactive: [1] -0.022 | crizotinib 0.044 | [2] 0.019 | [3] 0.121 | duvelisib 0.024 | gandotinib 0.03 | tozasertib -0.019 | [4] -0.07 | doramapimod -0.003 | ispinesib -0.045 | bafetinib 0.03 | [5] -0.055 | nilotinib -0.116 | [6] 0.065 | dasatinib 0.088 | [7] -0.08 | [8] -0.09 | [9] 0.149 | tipifarnib 0.046 | mubritinib -0.028

Quoted at random: 2 records from the list
MAGEC1 (UniProt O60732)
inactive: [1] 0.046 | crizotinib -0.075 | [2] -0.14 | [3] 0.185 | duvelisib -0.039 | gandotinib 0.103 | tozasertib 0.142 | [4] 0.029 | doramapimod 0.075 | ispinesib -0.103 | bafetinib 0.062 | [5] 0.025 | nilotinib 0.032 | [6] -0.046 | dasatinib -0.008 | [7] 0.065 | [8] -0.141 | [9] -0.04 | tipifarnib -0.085 | mubritinib -0.081

MAN2C1 isoform 4 (UniProt Q9NTJ4)
inactive: [1] -0.022 | crizotinib 0.044 | [2] 0.019 | [3] 0.121 | duvelisib 0.024 | gandotinib 0.03 | tozasertib -0.019 | [4] -0.07 | doramapimod -0.003 | ispinesib -0.045 | bafetinib 0.03 | [5] -0.055 | nilotinib -0.116 | [6] 0.065 | dasatinib 0.088 | [7] -0.08 | [8] -0.09 | [9] 0.149 | tipifarnib 0.046 | mubritinib -0.028

(next part)

LSM12 isoform 2 (UniProt Q3MHD2)
inactive: [1] -0.008 | crizotinib 0.003 | [2] -0.154 | [3] -0.03 | duvelisib -0.035 | gandotinib -0.08 | tozasertib 0.073 | [4] -0.051 | doramapimod 0.06 | ispinesib 0.087 | bafetinib 0.046 | [5] -0.072 | nilotinib 0.054 | [6] -0.014 | dasatinib 0.037 | [7] 0.026 | [8] 0.074 | [9] -0.031 | tipifarnib -0.013 | mubritinib 0.012
